Taken from: PubChem BioAssay AID1259425 (University of Nebraska Medical Center, 2018)

- Assay: 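Seek colon cancer weak points whose silencing resembles KSR1 loss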 (primary screen)
- System: HCT116 human colon cancer cells
- Reagent: siRNA pool against human genes, 50 nM siRNA
- Detection: 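mRNA of six signature genes measured together by branched-DNA assay after 50 nM siRNA pool, blank removed, divided by geometric mean of two housekeeping genes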
- Scale: BNIP3L mRNA: higher = more BNIP3L transcript after knockdown; NDRG1 mRNA: higher = more NDRG1 transcript after knockdown
Here is a random part of about 14,000 deposited reagents. Not all columns of the deposit are shown. Not given: the time to read-out.

TAF1D — BNIP3L mRNA, set 1: 0.098; NDRG1 mRNA, set 1: 0.369
VPS13D — BNIP3L mRNA, set 1: 0.0748; NDRG1 mRNA, set 1: 0.256
MARCHF8 — BNIP3L mRNA, set 1: 0.2; NDRG1 mRNA, set 1: 0.255
PDRG1 — BNIP3L mRNA, set 1: 0.113; NDRG1 mRNA, set 1: 0.459
TBCC — BNIP3L mRNA, set 1: 0.148; NDRG1 mRNA, set 1: 0.0836
APOA2 — BNIP3L mRNA, set 1: 0.104; NDRG1 mRNA, set 1: 0.11
ABT1 — BNIP3L mRNA, set 1: 0.0548; NDRG1 mRNA, set 1: 0.204
UNC80 — BNIP3L mRNA, set 1: 0.275; NDRG1 mRNA, set 1: 0.211
DEPDC5 — BNIP3L mRNA, set 1: 0.146; NDRG1 mRNA, set 1: 0.267

Laid out differently: 2 of the entries above
UNC80
- BNIP3L mRNA, set 1: 0.275
- NDRG1 mRNA, set 1: 0.211

DEPDC5
- BNIP3L mRNA, set 1: 0.146
- NDRG1 mRNA, set 1: 0.267

More entries follow:
MAOB — BNIP3L mRNA, set 1: 0.117; NDRG1 mRNA, set 1: 0.201
AGA — BNIP3L mRNA, set 1: 0.114; NDRG1 mRNA, set 1: 0.186
EEF1G — BNIP3L mRNA, set 1: 0.0701; NDRG1 mRNA, set 1: 0.0944
AGXT — BNIP3L mRNA, set 1: 0.066; NDRG1 mRNA, set 1: 0.243
RB1CC1 — BNIP3L mRNA, set 1: 0.0564; NDRG1 mRNA, set 1: 0.204
IQGAP2 — BNIP3L mRNA, set 1: 0.0862; NDRG1 mRNA, set 1: 0.0734
SLC10A3 — BNIP3L mRNA, set 1: 0.178; NDRG1 mRNA, set 1: 1.44
RBM22 — BNIP3L mRNA, set 1: 0.0835; NDRG1 mRNA, set 1: 0.21
PIGC — BNIP3L mRNA, set 1: 0.12; NDRG1 mRNA, set 1: 0.074
SAMD9 — BNIP3L mRNA, set 1: 0.0849; NDRG1 mRNA, set 1: 0.262
